Measurements reported in publication PMC5356707.
These are yes or no findings as the source states them, for the method shown. In cells and extracts the contact can be indirect. Some binding calls cover weakened binding; strength is not graded here.

Sequences of proteins named here, by UniProt entry; tags and fusion partners are left off.
UniProt Q15910: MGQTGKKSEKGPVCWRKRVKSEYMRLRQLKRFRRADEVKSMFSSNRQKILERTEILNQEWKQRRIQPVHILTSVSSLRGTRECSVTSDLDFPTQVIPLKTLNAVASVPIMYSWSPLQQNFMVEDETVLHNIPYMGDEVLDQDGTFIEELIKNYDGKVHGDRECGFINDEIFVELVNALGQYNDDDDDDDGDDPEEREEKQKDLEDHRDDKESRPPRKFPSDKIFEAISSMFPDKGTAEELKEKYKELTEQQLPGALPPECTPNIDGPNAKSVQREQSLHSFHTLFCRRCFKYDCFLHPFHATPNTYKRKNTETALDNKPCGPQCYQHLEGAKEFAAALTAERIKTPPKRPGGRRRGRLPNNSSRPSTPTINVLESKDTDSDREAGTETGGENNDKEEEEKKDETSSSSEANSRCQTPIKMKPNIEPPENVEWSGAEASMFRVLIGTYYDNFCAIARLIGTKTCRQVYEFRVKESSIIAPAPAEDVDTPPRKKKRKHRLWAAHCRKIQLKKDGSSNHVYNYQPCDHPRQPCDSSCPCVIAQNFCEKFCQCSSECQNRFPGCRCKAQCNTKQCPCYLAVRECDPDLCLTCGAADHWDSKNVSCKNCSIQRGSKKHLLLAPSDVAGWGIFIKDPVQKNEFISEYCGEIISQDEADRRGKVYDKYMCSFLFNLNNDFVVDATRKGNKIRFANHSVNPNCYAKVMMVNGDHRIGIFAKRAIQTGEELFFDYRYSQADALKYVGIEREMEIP
UniProt O75362: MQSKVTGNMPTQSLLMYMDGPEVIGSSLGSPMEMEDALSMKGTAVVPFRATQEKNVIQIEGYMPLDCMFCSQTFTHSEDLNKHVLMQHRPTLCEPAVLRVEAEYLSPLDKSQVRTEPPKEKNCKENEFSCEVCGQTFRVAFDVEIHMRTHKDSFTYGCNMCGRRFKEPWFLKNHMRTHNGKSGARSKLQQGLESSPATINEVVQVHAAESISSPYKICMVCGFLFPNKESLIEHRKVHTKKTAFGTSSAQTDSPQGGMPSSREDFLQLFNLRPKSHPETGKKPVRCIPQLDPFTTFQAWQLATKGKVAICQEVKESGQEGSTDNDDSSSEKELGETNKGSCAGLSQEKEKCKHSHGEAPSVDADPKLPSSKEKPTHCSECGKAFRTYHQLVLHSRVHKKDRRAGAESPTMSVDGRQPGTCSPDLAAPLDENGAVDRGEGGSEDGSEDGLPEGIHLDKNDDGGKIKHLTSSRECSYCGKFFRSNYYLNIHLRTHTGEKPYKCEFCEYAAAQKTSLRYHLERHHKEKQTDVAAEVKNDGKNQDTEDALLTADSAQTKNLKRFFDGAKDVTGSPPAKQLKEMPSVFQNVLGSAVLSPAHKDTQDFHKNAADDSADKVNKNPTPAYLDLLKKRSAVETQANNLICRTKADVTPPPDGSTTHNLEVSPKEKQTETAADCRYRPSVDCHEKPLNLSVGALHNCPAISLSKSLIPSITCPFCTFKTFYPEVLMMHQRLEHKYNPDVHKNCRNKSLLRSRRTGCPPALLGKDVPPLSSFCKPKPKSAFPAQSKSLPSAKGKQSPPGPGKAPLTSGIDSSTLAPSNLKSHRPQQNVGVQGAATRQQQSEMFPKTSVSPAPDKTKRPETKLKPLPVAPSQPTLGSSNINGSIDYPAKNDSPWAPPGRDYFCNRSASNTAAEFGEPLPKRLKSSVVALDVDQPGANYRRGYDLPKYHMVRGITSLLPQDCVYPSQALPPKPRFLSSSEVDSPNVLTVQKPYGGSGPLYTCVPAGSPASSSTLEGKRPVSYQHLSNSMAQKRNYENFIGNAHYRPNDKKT

Target: EZH2 (human (endogenous in human PCa cell lines PC3 or LNCaP)) (UniProt Q15910)
Experiment: co-IP; endogenous proteins; Pierce Co-IP kit; cells lysed in IP lysis buffer, lysates sonicated, pre-cleared with protein A agarose 1 h at 4°C, antibodies (anti-ZNF217, anti-EZH2, H3K27me3) overnight at 4°C; western blot; cell line not stated

With “Zinc-figure protein 217 (ZNF217) (from UniProt O75362 1-1048)” the binding was “binds”.
